Test results as given in paper doi:10.1101/2023.08.05.552090.
No constants are given. Whether binding was seen depends on the method and setting. Some results given as binding are weak or reduced against the parent protein; the word gives no strength.

What was measured:
Assay in all cases: co-purification
[1] = target: T1, S. cerevisiae Mre11 (S. cerevisiae) (UniProt P32829)
T1 sequence: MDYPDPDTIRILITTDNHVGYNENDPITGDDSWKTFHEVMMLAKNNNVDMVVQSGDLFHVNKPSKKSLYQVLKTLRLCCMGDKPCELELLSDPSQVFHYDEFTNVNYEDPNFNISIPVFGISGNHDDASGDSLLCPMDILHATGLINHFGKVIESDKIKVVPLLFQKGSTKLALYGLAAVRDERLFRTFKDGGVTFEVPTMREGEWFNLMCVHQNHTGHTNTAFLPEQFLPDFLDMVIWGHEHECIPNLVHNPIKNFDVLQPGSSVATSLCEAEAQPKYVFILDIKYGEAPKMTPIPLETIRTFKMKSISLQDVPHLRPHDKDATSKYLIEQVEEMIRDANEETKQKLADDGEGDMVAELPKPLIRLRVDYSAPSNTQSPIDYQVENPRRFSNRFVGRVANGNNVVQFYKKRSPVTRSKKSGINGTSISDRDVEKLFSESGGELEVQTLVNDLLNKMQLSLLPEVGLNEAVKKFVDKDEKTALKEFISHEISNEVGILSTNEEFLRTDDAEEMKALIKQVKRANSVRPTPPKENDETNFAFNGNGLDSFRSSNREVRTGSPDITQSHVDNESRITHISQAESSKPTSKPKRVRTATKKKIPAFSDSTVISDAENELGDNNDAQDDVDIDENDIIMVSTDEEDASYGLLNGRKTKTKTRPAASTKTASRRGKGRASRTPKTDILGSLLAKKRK

[2] = target: T2, S. cerevisiae Mre11 E183R (S. cerevisiae) (UniProt P32829)
T2 sequence: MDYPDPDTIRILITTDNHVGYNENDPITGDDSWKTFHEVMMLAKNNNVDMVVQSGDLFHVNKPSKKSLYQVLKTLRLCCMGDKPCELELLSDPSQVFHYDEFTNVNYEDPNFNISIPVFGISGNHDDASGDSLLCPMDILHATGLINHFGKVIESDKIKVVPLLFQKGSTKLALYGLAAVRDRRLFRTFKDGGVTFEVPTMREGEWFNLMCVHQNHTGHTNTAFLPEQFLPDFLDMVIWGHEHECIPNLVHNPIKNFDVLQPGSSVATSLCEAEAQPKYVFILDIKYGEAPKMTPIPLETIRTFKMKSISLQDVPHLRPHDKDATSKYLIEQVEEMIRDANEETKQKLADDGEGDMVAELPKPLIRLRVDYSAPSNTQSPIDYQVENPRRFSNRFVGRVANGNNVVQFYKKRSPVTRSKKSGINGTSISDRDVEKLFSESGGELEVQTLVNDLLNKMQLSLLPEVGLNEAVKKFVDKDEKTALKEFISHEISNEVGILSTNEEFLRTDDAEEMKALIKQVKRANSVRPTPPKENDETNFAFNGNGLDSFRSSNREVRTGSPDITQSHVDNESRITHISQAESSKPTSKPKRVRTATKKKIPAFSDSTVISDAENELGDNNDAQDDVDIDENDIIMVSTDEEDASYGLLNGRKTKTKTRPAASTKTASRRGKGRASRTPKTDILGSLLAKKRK

[3] = target: T3, S. cerevisiae Mre11 R181E (S. cerevisiae) (UniProt P32829)
T3 sequence: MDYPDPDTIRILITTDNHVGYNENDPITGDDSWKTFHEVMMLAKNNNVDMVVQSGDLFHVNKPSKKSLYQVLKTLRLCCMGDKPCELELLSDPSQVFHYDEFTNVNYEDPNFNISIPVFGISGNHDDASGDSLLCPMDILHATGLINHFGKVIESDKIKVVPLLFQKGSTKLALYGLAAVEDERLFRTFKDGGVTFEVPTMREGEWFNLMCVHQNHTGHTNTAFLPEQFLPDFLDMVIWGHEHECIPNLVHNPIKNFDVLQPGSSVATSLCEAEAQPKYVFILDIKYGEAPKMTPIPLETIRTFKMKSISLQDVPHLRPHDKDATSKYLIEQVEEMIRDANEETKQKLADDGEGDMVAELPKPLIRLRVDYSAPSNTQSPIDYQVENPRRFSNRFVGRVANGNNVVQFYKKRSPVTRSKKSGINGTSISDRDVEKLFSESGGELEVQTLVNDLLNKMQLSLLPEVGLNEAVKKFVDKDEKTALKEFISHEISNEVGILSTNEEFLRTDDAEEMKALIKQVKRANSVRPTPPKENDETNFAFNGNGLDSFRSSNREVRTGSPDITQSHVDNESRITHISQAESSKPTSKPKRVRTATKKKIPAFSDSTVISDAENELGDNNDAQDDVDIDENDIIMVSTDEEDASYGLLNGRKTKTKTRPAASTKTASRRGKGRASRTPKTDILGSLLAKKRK

[4] = target: T4, S. cerevisiae Mre11 R184E (S. cerevisiae) (UniProt P32829)
T4 sequence: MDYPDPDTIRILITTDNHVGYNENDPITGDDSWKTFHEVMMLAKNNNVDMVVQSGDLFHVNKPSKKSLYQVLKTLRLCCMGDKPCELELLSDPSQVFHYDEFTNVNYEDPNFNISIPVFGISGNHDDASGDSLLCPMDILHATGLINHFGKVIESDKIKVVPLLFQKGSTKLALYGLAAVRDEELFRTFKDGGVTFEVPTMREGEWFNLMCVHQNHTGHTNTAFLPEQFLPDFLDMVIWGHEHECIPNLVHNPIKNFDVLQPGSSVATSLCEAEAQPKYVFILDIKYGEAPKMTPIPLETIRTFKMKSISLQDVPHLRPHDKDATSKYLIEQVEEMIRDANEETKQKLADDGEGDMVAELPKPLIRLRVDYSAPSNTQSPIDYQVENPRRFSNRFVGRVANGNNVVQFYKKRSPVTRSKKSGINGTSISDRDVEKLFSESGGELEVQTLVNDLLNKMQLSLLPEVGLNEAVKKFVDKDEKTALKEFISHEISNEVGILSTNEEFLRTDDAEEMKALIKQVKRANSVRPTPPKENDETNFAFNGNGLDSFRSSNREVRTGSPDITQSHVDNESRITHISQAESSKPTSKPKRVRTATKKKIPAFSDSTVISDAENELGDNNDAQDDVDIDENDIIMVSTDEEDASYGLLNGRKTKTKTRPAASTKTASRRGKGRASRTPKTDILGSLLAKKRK

[5] = target: T5, S. cerevisiae Mre11 R187E (S. cerevisiae) (UniProt P32829)
T5 sequence: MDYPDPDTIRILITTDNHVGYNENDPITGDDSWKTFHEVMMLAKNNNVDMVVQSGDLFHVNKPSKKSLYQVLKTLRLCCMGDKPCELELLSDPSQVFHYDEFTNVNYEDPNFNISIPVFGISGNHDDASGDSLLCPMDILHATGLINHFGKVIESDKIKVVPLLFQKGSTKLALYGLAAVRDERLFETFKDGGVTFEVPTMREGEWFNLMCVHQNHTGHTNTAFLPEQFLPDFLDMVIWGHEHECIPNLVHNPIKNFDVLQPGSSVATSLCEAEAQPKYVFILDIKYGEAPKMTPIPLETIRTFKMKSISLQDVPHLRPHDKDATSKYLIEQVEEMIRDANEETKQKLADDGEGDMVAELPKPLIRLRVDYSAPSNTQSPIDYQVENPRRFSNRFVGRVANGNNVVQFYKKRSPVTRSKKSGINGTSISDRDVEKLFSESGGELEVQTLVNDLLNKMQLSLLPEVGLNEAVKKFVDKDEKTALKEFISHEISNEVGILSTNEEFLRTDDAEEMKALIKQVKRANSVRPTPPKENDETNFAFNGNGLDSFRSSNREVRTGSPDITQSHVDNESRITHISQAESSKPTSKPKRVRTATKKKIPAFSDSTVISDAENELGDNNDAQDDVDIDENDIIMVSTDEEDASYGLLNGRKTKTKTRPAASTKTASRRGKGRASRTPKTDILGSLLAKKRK

binding [1]: binds | binding [2]: binds | binding [3]: binds | binding [4]: binds | binding [5]: binds
B1: S. cerevisiae Xrs2 (protein, UniProt P33301 1-854)
chain: MWVVRYQNTLEDGSISFISCCLQAFKTYSIGRSSKNPLIIKNDKSISRQHITFKWEINNSSDLKHSSLCLVNKGKLTSLNKKFMKVGETFTINASDVLKSTIIELGTTPIRIEFEWINEVWNIPPHLTQFRTMLSEYGISTEISINDIPANLMISDYPKSEDNSIRELYALVSTIPMKKSRFLMELCNTLLPTSKTNLKFDEMWNDMISNPEYNVFDFDPNILLSKFMRLNNIRVLTTIKSEPRLSSLLRTFNINLFAFDNIDSLYKYVDSLEASTEYLILTTTDKKENGKILCTIKTMLTSIIDGTLSAVINMKGASSRTLDNGKFDQISEGMSTILKTSRAPEVEASPVVSKKRKLNRRRVLPLDSLDFFAGGLSTKTLSENRSLTDAKRLNCGAESKTVISSPNIAEADEKHAPFLQNALKPTEDIGKKSGHSSPGAIIVSSPNLGTVNTSEDSLDKSLQSHKLPQPSLPEVAGIGSQTISSNSADYETAAVNSMDDAEVTKNFRVNHHQNIEQPSKNIRKLSNYSREISSPLQENCKSPVKELSIKEKSGTPHAFVEAIQETKNREVKRVKSTIVELKDEELSEEAINQLKNLAIVEPSNNLLRKSFDSEGNKTSRTTEKWENSLMEPEWHKRKNFKTFVKVRPKSKAHKEEGKNNTQSSDFIRNAAFLITRNYVPLKKYSKKDTTTKWGTEENEDMFALTEMERFGSNTFMSDNINSNTIQKRSQALNRFTNEDSSNEGEEDSFSFSRCSGTAASVQPLKNKIFITDEDDLGDIDDKSDRLNHRENNRNLFVVKEMNLRPNLSEECSKQSRHSRSATSRSRGSFGASNNGDGDDDDDDGPKFTFKRRKG
